HELM strings list residues between dots; [ac] is acetyl, [am] amide, other brackets name non-standard units. Bridge positions count the residues as written; N and C are the ends. Square brackets hold non-standard residues; d marks the D form. * marks the point of attachment. 5FAM = O=C1OC2(c3ccc(O)cc3Oc3cc(O)ccc32)c2ccc(C(=O)*)cc21; Biotin = O=C1N[C@H]2[C@H](CS[C@H]2CCCCC(=O)*)N1; Nle = CCCC[C@H](N)C(=O)O; Orn = NCCC[C@H](N)C(=O)O; Aib = CC(C)(N)C(=O)O
Test: peptide made by a vendor (peptide synthesis; Trt(2-Cl)-Resin; HATU/DIEA)
Conditions: conjugation step

Substance | final purity (method not given) [%]
DBCO-PEG5-Taz-PEG4-Gly-Thr-Pro-c(Cys-Thr-Tyr-Lys-Tyr-Nle-Leu-Ala-Glu-Nle-Cys)-OH (SEQ ID NO: 55) | 95.0

Same assay, conditions: whole synthesis

Substance | final purity (method not given) [%]
Ac-K(5FAM)GTPCTYKY[Nle]L[Aib]E[Nle]C-OH (disulfide 5-15; SEQ ID NO: 34) | 96
Ac-K(5FAM)GTPCTYKY[Nle]LAE[Nle]C-OH (disulfide 5-15; SEQ ID NO: 3) | 100
Ac-K(5FAM)GTPCTYKY[Nle]LAE[Nle]C-OH (disulfide 5-15; SEQ ID NO: 4) | 90
Ac-K(5FAM)GTPCTYKY[Nle]LAE[Nle]PC-OH (disulfide 5-16; SEQ ID NO: 43) | 95
Ac-K(Biotin)GTPCTYKY[Nle]LAE[Nle]C-OH (SEQ ID NO: 45; cysteine pairing not given here) | 95
Ac-K(5FAM)GTPCSYKY[Nle]LAE[Nle]C-OH (disulfide 5-15; SEQ ID NO: 17) | 95
Ac-K(5FAM)GTPCTYKY[Nle]LAEIC-OH (disulfide 5-15; SEQ ID NO: 40) | 96
Ac-K(5FAM)GTP[dC]TYKY[Nle]LAE[Nle]C-OH (disulfide 5-15; SEQ ID NO: 6) | 100
Ac-Lys(5FAM)-Gly-Thr-Pro-c(Cys-Thr-Tyr-Lys-Tyr-Nle-Leu-Ala-Glu-Ahep-Cys)-OH (SEQ ID NO: 41) | 97
PEPTIDE1{[ac].[KBiot].G.T.P.[Cx].T.Y.K.Y.[Nle].L.A.E.[Nle].[Cx]}$PEPTIDE1,PEPTIDE1,6:R3-16:R3$$$V2.0 | 96
Ac-K(5FAM)GTP[dC]TYKY[Nle]LAE[Nle][dC]-OH (disulfide 5-15; SEQ ID NO: 15) | 98
Ac-lys(5FAM)-Gly-Thr-Pro-c(^DCys-Thr-Tyr-Lys-Thr-Nle-Leu-Ala-Glu-Nle-^DCys)-OH (SEQ ID NO: 16) | 98
Ac-K(5FAM)GTPCTYK[Nle][Nle]LAE[Nle]C-OH (disulfide 5-15; SEQ ID NO: 25) | 96
Ac-K(5FAM)GTPCTYKY[Nle]LAE[Nle][dC]-OH (disulfide 5-15; SEQ ID NO: 12) | 99
Ac-K(5FAM)GTPCTYKY[Nle]LAE[Nle][dC]-OH (disulfide 5-15; SEQ ID NO: 10) | 100
Ac-K(5FAM)GTP[dC]TYKY[Nle]LAE[Nle]C-OH (disulfide 5-15; SEQ ID NO: 8) | 77
Ac-K(5FAM)GTPCTYKY[Nle]LAE[Nle]C-OH (disulfide 5-15; SEQ ID NO: 2) | 95
Ac-K(5FAM)GTPCTYKY[Nle]LAE[Nle][dC]-OH (disulfide 5-15; SEQ ID NO: 11) | 100
Ac-K(5FAM)GTPCTHKY[Nle]LAE[Nle]C-OH (disulfide 5-15; SEQ ID NO: 22) | 97
Ac-K(5FAM)GTPCTYKY[Nle]L[dA]E[Nle]C-OH (disulfide 5-15; SEQ ID NO: 33) | 91
Ac-K(5FAM)GTPCTYKYRLAE[Nle]C-OH (disulfide 5-15; SEQ ID NO: 27) | 95
Ac-K(5FAM)GTPCTYKY[Nle]LAG[Nle]C-OH (disulfide 5-15; SEQ ID NO: 37) | 95
Ac-K(5FAM)GTP[dC]TYKY[Nle]LAE[Nle]C-OH (SEQ ID NO: 5; cysteine pairing not given here) | 99
Ac-K(5FAM)GTP[dC]TYKY[Nle]LAE[Nle]C-OH (disulfide 5-15; SEQ ID NO: 7) | 98

Substance | final purity (method not given) [%]
Ac-Lys(5FAM)-Gly-Thr-Pro-c(Cys-Thr-Tyr-Lys-Tyr-Nle-Aoc-Ala-Glu-Nle-Cys)-OH (SEQ ID NO: 32) | 96
Ac-Lys(5FAM)-Gly-Thr-Pro-c(Cys-Thr-Tyr-Lys-Tyr-Nle-Leu-Ala-Glu-Aoc-Cys)-OH (SEQ ID NO: 42) | 95
Ac-K(5FAM)GTPCTYKY[Nle]LAELC-OH (disulfide 5-15; SEQ ID NO: 39) | 88
Ac-K(5FAM)GTPCTYKY[Nle]LAD[Nle]C-OH (disulfide 5-15; SEQ ID NO: 35) | 99
Ac-K(5FAM)GTP[dC]TYKY[Nle]LAE[Nle][dC]-OH (disulfide 5-15; SEQ ID NO: 14) | 96
Ac-K(5FAM)GTPCTYKY[Nle][Nle]AE[Nle]C-OH (disulfide 5-15; SEQ ID NO: 30) | 95
Ac-K(5FAM)GTPCTYKY[Nle]LAE[Nle][dC]-OH (SEQ ID NO: 9; cysteine pairing not given here) | 99
Ac-K(5FAM)GTPCTFKY[Nle]LAE[Nle]C-OH (disulfide 5-15; SEQ ID NO: 20) | 97
Ac-Lys(5FAM)-Gly-Thr-Pro-c(Cys-cHyp-Tyr-Lys-Tyr-Nle-Leu-Ala-Glu-Nle-Cys)-OH (SEQ ID NO: 18) | 99
Ac-K(5FAM)GTPTCYKY[Nle]LAE[Nle]PC-OH (disulfide 6-16; SEQ ID NO: 44) | 96
Ac-K(5FAM)GTPCTYKY[Nle]IAE[Nle]C-OH (disulfide 5-15; SEQ ID NO: 29) | 95
Ac-Lys(5FAM)-Gly-Thr-Pro-c(Cys-tHyp-Tyr-Lys-Tyr-Nle-Leu-Ala-Glu-Nle-Cys)-OH (SEQ ID NO: 19) | 95
Ac-K(5FAM)GTPCTYKRRLAE[Nle]C-OH (disulfide 5-15; SEQ ID NO: 26) | 96
Lys(5FAM)-Gly-Thr-Phe-Phe-Tyr-Gly-Gly-Ser-Arg-Gly-Lys-Arg-Asn-Asn-Phe-Lys-The-Glu-Glu-Tyr-OH (SEQ ID NO: 47) | 99
Ac-K(5FAM)GTP[dC]TYKY[Nle]LAE[Nle][dC]-OH (SEQ ID NO: 13; cysteine pairing not given here) | 99
Ac-K(5FAM)GTPCTYKY[Nle]LAA[Nle]C-OH (disulfide 5-15; SEQ ID NO: 36) | 95
Ac-Lys(5FAM)-Gly-Thr-Pro-c(Cys-Thr-Tyr-Lys-Tyr-Nle-Ahep-Ala-Glu-Nle-Cys)-OH (SEQ ID NO: 31) | 100
Ac-K(5FAM)GTPCTWKY[Nle]LAE[Nle]C-OH (disulfide 5-15; SEQ ID NO: 21) | 95
Ac-K(5FAM)GTPCTYKY[Nle]VAE[Nle]C-OH (disulfide 5-15; SEQ ID NO: 28) | 96
Ac-K(5FAM)GTPCTYRY[Nle]LAE[Nle]C-OH (disulfide 5-15; SEQ ID NO: 24) | 98
Ac-K(5FAM)GTPCTY[Orn]Y[Nle]LAE[Nle]C-OH (disulfide 5-15; SEQ ID NO: 23) | 90
Ac-K(5FAM)GTWPKHFDKHTFYSILKLGKH-OH (SEQ ID NO: 48) | 96
Ac-K(5FAM)GTPCTYKY[Nle]LAEVC-OH (disulfide 5-15; SEQ ID NO: 38) | 95

— patent publication EP4541891A1 (Ichimaru Pharcos Co., Ltd., priority 2022, dated 2025)
